Test results published in patent US20200338049A1, “AGENT FOR TREATING FABRY DISEASE, ANALGESIC FOR EXTERNAL USE AND PERSPIRATION ACCELERATOR” (OSAKA UNIVERSITY, priority 2016, published 2020).
For at least one compound, name, drawing or mass did not settle the structure.

What was measured:
typical cultured cells = conditions: compared with other compounds such as Torin 1, Patent Literature 1; cited from earlier work
[1] = Patent Literature 3; cited from earlier work
α-galA-knockout SK-N-MC = test: Influx of calcium ions into cells (Calcium Kit-Fura2), α-galA-knockout SK-N-MC; assay type: cell-based, human

With `CO[C@H]1C[C@@H]2CC[C@@H](C)[C@@](O)(O2)C(=O)C(=O)N2CCCC[C@H]2C(=O)O[C@H]([C@H](C)C[C@@H]2CC[C@@H](O)[C@H](OC)C2)CC(=O)[C@H](C)/C=C(\C)[C@@H](O)[C@@H](OC)C(=O)[C@H](C)C[C@H](C)/C=C/C=C/C=C/1C` [rapamycin] as the compound, how does the “effectiveness in removing accumulated substances” value (typical cultured cells) read?
The value was “less effective”.

What about the effect on perspiration [1] of the same compound?
Its effect on perspiration is “suppresses perspiration”.

And the “influx of calcium ions into cells, changes over time” value (α-galA-knockout SK-N-MC)?
The value was “dramatic reduction in influx of calcium ions into cells”.

What about the “amount of calcium ions moving into cells” value (α-galA-knockout SK-N-MC; 1 mM glutamate) of the same compound?
The value was “decrease in amount of calcium ions into cells”.
